# Measured values reported in the supplement of paper PMC6411743.
# Chains of the proteins cited; added tags and fusions are not shown. Lines headed by an entry give the natural chain unless they say otherwise; changes in a name come on top.
# UniProt Q5TC82: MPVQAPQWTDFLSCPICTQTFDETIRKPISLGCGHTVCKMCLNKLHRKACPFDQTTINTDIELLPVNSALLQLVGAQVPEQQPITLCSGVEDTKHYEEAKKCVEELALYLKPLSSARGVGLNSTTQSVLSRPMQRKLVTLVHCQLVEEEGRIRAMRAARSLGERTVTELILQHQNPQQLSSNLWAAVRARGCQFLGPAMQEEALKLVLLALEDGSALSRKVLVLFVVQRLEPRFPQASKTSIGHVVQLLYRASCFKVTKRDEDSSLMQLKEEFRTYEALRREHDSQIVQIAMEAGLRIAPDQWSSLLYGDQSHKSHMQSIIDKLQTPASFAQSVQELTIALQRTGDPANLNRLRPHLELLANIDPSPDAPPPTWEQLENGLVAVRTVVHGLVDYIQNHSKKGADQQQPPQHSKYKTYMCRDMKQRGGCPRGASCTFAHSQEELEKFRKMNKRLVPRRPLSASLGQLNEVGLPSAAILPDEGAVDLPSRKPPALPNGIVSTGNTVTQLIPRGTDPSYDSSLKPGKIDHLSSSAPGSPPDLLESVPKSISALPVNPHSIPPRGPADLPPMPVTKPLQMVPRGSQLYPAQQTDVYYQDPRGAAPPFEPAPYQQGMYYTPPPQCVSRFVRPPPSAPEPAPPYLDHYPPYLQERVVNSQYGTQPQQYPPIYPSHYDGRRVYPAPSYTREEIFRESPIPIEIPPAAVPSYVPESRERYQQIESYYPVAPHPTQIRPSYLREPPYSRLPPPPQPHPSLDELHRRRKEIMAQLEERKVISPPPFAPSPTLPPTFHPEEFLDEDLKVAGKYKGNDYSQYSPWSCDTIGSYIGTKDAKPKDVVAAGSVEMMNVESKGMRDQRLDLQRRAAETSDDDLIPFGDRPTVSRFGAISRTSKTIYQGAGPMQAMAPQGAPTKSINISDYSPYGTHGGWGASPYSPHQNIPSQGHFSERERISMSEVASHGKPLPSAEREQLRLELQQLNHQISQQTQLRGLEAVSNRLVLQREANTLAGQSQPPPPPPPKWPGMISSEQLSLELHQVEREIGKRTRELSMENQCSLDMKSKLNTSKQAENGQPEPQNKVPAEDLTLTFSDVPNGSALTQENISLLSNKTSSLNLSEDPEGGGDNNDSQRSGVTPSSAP
# UniProt Q9BZJ0: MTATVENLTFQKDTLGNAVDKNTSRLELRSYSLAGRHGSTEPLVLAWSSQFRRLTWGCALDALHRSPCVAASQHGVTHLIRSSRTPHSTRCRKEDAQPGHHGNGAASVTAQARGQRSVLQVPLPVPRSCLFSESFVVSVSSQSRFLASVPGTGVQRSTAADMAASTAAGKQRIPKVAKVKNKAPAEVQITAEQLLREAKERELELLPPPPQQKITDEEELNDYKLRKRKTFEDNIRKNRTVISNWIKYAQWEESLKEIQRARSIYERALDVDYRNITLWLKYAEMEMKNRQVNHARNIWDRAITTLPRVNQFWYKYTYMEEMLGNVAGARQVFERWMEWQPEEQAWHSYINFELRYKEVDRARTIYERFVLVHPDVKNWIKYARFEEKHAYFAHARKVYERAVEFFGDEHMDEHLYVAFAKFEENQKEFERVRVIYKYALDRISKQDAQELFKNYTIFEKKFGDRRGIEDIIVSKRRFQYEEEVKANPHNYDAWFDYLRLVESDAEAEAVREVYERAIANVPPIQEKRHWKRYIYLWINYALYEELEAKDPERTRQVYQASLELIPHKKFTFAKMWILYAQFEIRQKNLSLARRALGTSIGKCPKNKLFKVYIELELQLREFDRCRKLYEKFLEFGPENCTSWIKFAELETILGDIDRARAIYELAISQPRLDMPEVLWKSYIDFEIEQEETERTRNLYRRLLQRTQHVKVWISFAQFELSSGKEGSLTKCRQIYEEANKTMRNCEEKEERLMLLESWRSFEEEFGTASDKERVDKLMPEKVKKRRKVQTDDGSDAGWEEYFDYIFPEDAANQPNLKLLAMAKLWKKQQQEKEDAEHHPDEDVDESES
# UniProt Q5EBL8: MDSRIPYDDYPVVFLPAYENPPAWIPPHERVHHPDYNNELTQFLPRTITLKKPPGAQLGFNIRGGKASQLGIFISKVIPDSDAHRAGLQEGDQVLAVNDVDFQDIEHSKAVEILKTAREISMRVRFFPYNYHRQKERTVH
# UniProt Q6IQ49: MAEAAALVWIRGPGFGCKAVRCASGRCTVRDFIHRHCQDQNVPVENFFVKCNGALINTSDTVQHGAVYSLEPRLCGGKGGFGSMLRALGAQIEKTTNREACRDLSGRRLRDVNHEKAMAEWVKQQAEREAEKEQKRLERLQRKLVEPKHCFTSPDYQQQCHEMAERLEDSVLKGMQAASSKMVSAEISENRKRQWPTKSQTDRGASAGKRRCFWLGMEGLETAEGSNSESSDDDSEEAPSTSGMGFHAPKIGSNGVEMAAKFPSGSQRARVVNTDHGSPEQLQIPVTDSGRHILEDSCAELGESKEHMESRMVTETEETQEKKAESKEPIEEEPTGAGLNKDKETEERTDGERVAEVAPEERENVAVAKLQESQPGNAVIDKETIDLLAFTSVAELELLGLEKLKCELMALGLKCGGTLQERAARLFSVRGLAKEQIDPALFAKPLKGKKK
# UniProt Q9H6K1: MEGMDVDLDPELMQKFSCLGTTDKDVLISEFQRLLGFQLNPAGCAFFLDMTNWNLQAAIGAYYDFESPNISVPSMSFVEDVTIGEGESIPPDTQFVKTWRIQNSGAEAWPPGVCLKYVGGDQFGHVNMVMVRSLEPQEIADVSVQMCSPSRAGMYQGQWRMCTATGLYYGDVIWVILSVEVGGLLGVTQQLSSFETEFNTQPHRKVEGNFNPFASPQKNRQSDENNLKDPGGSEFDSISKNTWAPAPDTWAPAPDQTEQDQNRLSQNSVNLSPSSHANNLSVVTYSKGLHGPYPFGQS
# UniProt Q6PD74: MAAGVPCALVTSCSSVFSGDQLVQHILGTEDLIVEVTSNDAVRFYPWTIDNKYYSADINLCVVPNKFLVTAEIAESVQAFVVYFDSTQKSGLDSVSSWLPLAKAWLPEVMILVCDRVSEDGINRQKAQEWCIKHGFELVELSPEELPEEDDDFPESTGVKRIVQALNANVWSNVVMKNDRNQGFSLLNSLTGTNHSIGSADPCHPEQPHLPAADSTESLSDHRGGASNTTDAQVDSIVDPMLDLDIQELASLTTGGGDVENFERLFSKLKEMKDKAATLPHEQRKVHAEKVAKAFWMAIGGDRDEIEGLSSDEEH
# UniProt Q5TDH0: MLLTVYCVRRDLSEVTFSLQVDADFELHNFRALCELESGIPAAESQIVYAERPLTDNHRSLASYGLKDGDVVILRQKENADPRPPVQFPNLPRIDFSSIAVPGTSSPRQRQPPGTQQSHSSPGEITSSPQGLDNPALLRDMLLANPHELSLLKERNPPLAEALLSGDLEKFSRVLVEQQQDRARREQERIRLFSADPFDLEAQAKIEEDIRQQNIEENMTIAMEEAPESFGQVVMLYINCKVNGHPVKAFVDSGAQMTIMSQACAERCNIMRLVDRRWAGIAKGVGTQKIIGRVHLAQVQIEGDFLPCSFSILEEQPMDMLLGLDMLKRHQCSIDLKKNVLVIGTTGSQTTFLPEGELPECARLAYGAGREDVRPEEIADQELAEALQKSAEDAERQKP
# UniProt Q6P179: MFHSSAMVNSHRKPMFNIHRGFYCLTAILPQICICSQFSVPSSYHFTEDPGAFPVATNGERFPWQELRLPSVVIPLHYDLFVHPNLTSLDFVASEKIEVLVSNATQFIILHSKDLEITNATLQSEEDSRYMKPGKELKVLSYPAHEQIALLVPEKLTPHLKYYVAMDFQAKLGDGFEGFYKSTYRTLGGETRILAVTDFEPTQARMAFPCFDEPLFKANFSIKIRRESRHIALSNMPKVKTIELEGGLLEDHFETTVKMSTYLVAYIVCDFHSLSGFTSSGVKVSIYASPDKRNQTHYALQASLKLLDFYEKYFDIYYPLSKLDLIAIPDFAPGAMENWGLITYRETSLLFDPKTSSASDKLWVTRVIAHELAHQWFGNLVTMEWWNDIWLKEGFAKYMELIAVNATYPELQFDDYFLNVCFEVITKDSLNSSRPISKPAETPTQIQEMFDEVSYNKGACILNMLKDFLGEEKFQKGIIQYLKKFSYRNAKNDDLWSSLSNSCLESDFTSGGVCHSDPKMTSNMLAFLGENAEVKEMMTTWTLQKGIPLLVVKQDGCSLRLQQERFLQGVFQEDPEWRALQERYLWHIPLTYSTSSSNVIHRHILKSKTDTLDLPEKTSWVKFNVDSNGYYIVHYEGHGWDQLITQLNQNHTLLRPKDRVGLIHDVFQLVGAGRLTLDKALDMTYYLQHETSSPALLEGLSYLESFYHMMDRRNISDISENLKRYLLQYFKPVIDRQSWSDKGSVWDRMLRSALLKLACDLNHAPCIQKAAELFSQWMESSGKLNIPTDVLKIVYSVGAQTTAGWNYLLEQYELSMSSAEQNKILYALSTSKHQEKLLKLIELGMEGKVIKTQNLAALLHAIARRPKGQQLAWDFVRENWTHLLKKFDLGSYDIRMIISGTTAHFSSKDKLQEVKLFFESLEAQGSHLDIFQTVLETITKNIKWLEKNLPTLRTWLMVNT
# UniProt Q6IAA8, whole entry: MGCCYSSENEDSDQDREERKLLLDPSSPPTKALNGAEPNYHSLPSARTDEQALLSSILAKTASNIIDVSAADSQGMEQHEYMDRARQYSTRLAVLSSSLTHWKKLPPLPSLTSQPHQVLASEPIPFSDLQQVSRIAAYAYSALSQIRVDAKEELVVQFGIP
# UniProt Q5VZE5: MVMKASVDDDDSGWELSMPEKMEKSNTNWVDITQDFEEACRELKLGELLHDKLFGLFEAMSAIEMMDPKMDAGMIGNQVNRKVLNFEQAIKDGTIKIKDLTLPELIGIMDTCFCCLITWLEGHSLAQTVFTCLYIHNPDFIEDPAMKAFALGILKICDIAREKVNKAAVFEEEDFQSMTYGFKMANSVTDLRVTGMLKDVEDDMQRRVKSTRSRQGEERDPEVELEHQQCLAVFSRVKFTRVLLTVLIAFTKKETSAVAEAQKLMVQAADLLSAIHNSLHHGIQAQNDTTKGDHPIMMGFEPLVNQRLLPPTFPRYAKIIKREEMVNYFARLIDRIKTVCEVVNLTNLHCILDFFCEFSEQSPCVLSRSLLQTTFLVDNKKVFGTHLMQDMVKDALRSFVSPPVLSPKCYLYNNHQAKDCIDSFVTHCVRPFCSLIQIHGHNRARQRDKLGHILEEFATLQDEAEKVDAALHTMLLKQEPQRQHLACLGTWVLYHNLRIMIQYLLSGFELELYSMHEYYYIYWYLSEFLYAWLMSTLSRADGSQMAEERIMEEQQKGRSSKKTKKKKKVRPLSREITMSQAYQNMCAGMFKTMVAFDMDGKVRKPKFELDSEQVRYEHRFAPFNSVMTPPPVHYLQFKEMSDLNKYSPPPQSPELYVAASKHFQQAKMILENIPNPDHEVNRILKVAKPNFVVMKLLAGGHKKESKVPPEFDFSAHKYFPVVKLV
# UniProt Q5RI15: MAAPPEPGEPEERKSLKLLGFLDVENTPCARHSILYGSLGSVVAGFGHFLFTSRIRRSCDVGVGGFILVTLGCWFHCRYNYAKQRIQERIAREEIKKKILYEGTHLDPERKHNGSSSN
# UniProt Q6P9B9, whole entry: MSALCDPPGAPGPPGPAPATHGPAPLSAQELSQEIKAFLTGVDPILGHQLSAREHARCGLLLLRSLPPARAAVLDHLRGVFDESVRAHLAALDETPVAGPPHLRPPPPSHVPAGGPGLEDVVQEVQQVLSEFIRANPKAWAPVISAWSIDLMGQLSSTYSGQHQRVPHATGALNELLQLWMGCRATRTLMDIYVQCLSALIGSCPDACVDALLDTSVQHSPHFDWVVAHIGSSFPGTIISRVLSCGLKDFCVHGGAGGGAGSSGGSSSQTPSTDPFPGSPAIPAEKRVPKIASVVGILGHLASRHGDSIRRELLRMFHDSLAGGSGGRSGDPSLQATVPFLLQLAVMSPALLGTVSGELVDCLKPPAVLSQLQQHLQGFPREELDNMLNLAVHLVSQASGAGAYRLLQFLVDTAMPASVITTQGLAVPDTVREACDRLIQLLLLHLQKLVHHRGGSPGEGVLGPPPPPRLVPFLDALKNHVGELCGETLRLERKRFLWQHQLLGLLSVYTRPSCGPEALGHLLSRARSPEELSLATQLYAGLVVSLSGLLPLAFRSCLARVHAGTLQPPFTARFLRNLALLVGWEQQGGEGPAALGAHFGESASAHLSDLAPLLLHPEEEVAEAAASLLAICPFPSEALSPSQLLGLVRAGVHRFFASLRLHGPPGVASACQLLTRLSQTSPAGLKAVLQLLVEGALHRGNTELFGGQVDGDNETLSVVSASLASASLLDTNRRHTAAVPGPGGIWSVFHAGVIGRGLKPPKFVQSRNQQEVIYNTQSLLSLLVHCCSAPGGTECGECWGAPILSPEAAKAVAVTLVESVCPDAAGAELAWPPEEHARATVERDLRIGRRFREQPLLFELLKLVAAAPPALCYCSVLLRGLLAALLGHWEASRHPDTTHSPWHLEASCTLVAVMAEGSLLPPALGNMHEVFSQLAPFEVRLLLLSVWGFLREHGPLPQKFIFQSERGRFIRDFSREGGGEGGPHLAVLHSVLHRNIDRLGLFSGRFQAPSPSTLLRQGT
# ± gives the standard deviation of the averaged measurements. The entries are a selection whose mix differs from that of the whole data set.
# Compound: Nc1ncnc2c1ncn2[C@@H]1O[C@H](COP(=O)(O)OP(=O)(O)OP(=O)(O)O)[C@@H](O)[C@H]1O [adenosine triphosphate]
# Assay: NP40-soluble protein abundance relative to vehicle (solubility fold change) (ratio); higher = more soluble protein in presence of ATP
# Conditions: concentration: 1mM
# Outline: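 Across three independent experiments, values are fold changes against the detergent-processed vehicle for each replicate, based on vsn-normalised intensities. The samples were Jurkat crude lysate treated with eight concentrations (0.1 to 10 mM) for 10 min at room temperature and then 3 min at 37 °C. Lysate was solubilised with 0.8% NP40 and benzonase, ultracentrifuged, and the supernatant analysed by TMT-labelled LC-MS/MS.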
row,Target,NP40-soluble protein abundance
1,RCSD1 (UniProt Q6JBY9),0.809 ± 0.088
2,Q5VV50 and related entries (UniProt Q5VV52),1.1 ± 0.014
3,UniProt Q6P1J9,0.978 ± 0.018
4,HABP4 (UniProt Q5JVS0),1.26 ± 0.073
5,NXN (UniProt Q6DKJ4),0.998 ± 0.07
6,UniProt Q5TC82 and related entries,1.08 ± 0.047
7,UniProt Q5JTD0 and related entries,0.926 ± 0.052
8,TMEM41B (UniProt Q5BJD5),0.92 ± 0.052
9,Q5JY65 and related entries (UniProt Q9BZJ0),1.04 ± 0.062
10,UniProt Q5EBL8 and related entries,1.04 ± 0.08
11,UniProt Q6IQ49 and related entries,0.931 ± 0.034
12,Q5TH58 and related entries (UniProt Q9H6K1),0.972 ± 0.039
13,UniProt Q6NTF9 and related entries,0.884 ± 0.082
14,UniProt Q6PD74 and related entries,0.958 ± 0.056
15,UniProt Q5TDH0 and related entries,0.975 ± 0.014
16,UniProt Q5W0U4 and related entries,1.06 ± 0.063
17,UniProt Q5THK1 and related entries,0.975 ± 0.11
18,UniProt Q5M775 and related entries,0.948 ± 0.055
19,ERAP2 (UniProt Q6P179),0.911 ± 0.029

row,Target,NP40-soluble protein abundance
1,HSD17B12 (UniProt Q53GQ0),0.999 ± 0.11
2,UniProt Q5T0N5-3|Q5T0N5-4,0.956 ± 0.033
3,UniProt Q6P2H3 and related entries,0.962 ± 0.047
4,UniProt Q6IAA8,0.934 ± 0.074
5,UniProt Q5VZE5,1.02 ± 0.074
6,UniProt Q66K14 and related entries,0.972 ± 0.034
7,UniProt Q6P2P2,1.02 ± 0.079
8,UniProt Q5RI15 and related entries,1.06 ± 0.17
9,Q5JSC0 and related entries (UniProt Q5VZF2),1.044 ± 0.0042
10,ARID2 (UniProt Q68CP9),1.19 ± 0.024
11,TTC27 (UniProt Q6P3X3),0.994 ± 0.089
12,Q5TZT0 and related entries (UniProt Q9NSU2),0.963 ± 0.02
13,ADNP2 (UniProt Q6IQ32),1.1 ± 0.025
14,PITRM1 (UniProt Q5JRX3),1.01 ± 0.045
15,UniProt Q5BKY9 and related entries,1.13 ± 0.044
16,FAM160B1 (UniProt Q5W0V3),0.964 ± 0.081
17,UniProt Q6F5E8 and related entries,1.09 ± 0.021
18,UniProt Q4KMQ2 and related entries,0.984 ± 0.033
19,INTS5 (UniProt Q6P9B9),1.09 ± 0.11

# Same assay, conditions: concentration: 2mM
row,Target,NP40-soluble protein abundance
1,RCSD1 (UniProt Q6JBY9),0.805 ± 0.037
2,Q5VV50 and related entries (UniProt Q5VV52),1.12 ± 0.058
3,UniProt Q6P1J9,0.984 ± 0.013
4,HABP4 (UniProt Q5JVS0),1.361 ± 0.0042
5,NXN (UniProt Q6DKJ4),1.06 ± 0.056
6,UniProt Q5TC82 and related entries,1.02 ± 0.075
7,UniProt Q5JTD0 and related entries,0.971 ± 0.033
8,TMEM41B (UniProt Q5BJD5),0.962 ± 0.071
9,Q5JY65 and related entries (UniProt Q9BZJ0),1.01 ± 0.034
10,UniProt Q5EBL8 and related entries,1.04 ± 0.026
11,UniProt Q6IQ49 and related entries,0.933 ± 0.022
12,Q5TH58 and related entries (UniProt Q9H6K1),0.981 ± 0.065
13,UniProt Q6NTF9 and related entries,0.892 ± 0.042
14,UniProt Q6PD74 and related entries,0.985 ± 0.076
15,UniProt Q5TDH0 and related entries,0.967 ± 0.036
16,UniProt Q5W0U4 and related entries,1 ± 0.023
17,UniProt Q5THK1 and related entries,0.888 ± 0.074
18,UniProt Q5M775 and related entries,0.901 ± 0.051
19,ERAP2 (UniProt Q6P179),0.955 ± 0.033

row,Target,NP40-soluble protein abundance
1,HSD17B12 (UniProt Q53GQ0),0.94 ± 0.049
2,UniProt Q5T0N5-3|Q5T0N5-4,0.9877 ± 0.0049
3,UniProt Q6P2H3 and related entries,0.933 ± 0.045
4,UniProt Q6IAA8,0.989 ± 0.057
5,UniProt Q5VZE5,1.04 ± 0.059
6,UniProt Q66K14 and related entries,0.982 ± 0.019
7,UniProt Q6P2P2,1.03 ± 0.096
8,UniProt Q5RI15 and related entries,1.11 ± 0.1
9,Q5JSC0 and related entries (UniProt Q5VZF2),0.9886 ± 0.0029
10,ARID2 (UniProt Q68CP9),1.22 ± 0.047
11,TTC27 (UniProt Q6P3X3),0.99 ± 0.043
12,Q5TZT0 and related entries (UniProt Q9NSU2),0.965 ± 0.028
13,ADNP2 (UniProt Q6IQ32),1.06 ± 0.17
14,PITRM1 (UniProt Q5JRX3),0.991 ± 0.051
15,UniProt Q5BKY9 and related entries,1.08 ± 0.082
16,FAM160B1 (UniProt Q5W0V3),1.01 ± 0.06
17,UniProt Q6F5E8 and related entries,1.07 ± 0.052
18,UniProt Q4KMQ2 and related entries,0.979 ± 0.054
19,INTS5 (UniProt Q6P9B9),1.06 ± 0.058
